Measurements published in US20230023092A1, “TREATMENT OF DEPRESSION AND OTHER VARIOUS DISORDERS WITH PSILOCYBIN” (COMPASS […], priority 2019, published 2023).
At least one compound was matched to its structure with a doubt left.

Experiments:
healthy subjects = test: CANTAB Paired Associates Learning (PALTEA); type: in vivo, human; settings: 10 mg and 25 mg
From the text: In some embodiments, the Paired Associates Learning (PAL) test is utilized to evaluate safety and/or efficacy of psilocybin. The PAL task is a measure of visuo-spatial memory in which study subjects are required to remember locations at which visual stimuli are located. […] One or more of them will contain a pattern. […] If the subject makes an error, the boxes are opened in sequence again to remind the subject of the locations of the patterns. Increased difficulty levels can be used to test high-functioning, healthy individuals. The primary metric for this test is the number of errors made. This test takes approximately 8 min to complete. […]
The following list of outcome measures are non-exhaustive. • a. The short-term change from Baseline (Day −1 [Visit 2]) to Day 7 (Visit 5) in cognitive measures of attention, spatial and working memory and executive function was measured by a composite score of the CANTAB Panel (Spatial Working Memory [SWM], Rapid Visual Information Processing [RVP], Paired Associates Learning [PAL]). • b. The short-term change from Baseline (Day −1 [Visit 2]) to Day 7 (Visit 5) in Social Cognition Panel scales (Pictorial Empathy Test [PET], Reading the Mind in the Eyes Test [RMET], Toronto Empathy Questionnaire [TEQ], Social Value Orientation [SVO], Scale of Social Responsibility [SSR]). • c. […]

Wistar-Kyoto (WKY) rats = test: Sleep-wake scoring (EEG/EMG: wake, NREM, REM) in rat model of TRD; type: in vivo; settings: 1, 3 and 10 mg/kg, i.p.
From the text: Since WKY rats show decreased sensitivity to conventional monoamine-based antidepressant treatment, they are used as a model of TRD.
Male (WKY) rats (200-250 g) were implanted with electroencephalography (EEG) and electromyography (EMG) electrodes and telemetry transmitters under general anesthesia (2-5% isoflurane in Oxygen). A telemetry transmitter (HD-502, Data Sciences International) was placed in the peritoneal cavity, and the wires of the transmitter were passed through the muscle wall and then sub-dermally to the scalp to act as EEG/EMG electrodes. Two bore holes were made in the skull (Fronto-parietal coordinates; Bregma +2 mm anterior, midline +1.0 mm lateral and Lambda 0 mm, +1.5 mm lateral). The positive EEG electrode was attached to the anterior bore hole and the negative EEG electrode to the posterior bore hole. Both electrodes were secured in place using a suitable adhesive agent (Cyanoacrylate gel, RS components). A second set of electrodes were sutured into the nuchal muscle to act as EMG electrodes. During the post-surgical recovery period (minimum 7 days), the rats received standard post-operative care and no experimental procedures were performed until the pre-operative body weight was regained.
Animals were maintained on a 12/12 hour light dark cycle. On study days, the animals were placed in recording boxes and EEG/EMG, locomotor activity, as well as body temperature were recorded for 0.5 hours before and 24 hours after each dosing. All animals were dosed with saline vehicle first, followed by one of the drug treatments 24 hours later. Drug treatments included ketamine (5 and 10 mg/kg) administered subcutaneously (s.c.)) and psilocybin (1, 3 and 10 mg/kg); administered intraperitoneally (i.p.)).
All treatments were administered 2 hours after light onset. All animals received all treatment conditions by escalating the doses on a weekly basis, with a 6 day washout period between drug treatment and the subsequent vehicle treatment.
EEG, EMG, locomotor activity and body temperature data were acquired for 0.5 hours before and 24 hours after each treatment with Spike2 software (CED, Cambridge UK). EEG/EMG signals were amplified, analogue filtered (0.5-100 Hz), digitized (256 Hz), and then digitally filtered (EEG: 0.5-100 Hz and EMG: 5-100 Hz).
The subsequent EEG/EMG recordings were automatically scored as wake, non-REM (NREM) sleep, or REM sleep in 10 second epochs using SleepSign (Kissei Comtec, Japan).
Statistical analysis: Repeated measures ANOVA followed by Dunnett post-test was used to compare the different treatment groups (GraphPad, Prism 8).

Structure (SMILES): CN(C)CCc1c[nH]c2cccc(OP(=O)(O)O)c12 [Psilocybin, psilocybin]
- PALTEA change from Baseline to Day 28 (healthy subjects): numeric improvement in performance
- Amount of REM sleep (Wistar-Kyoto (WKY) rats): decreased the amount of REM sleep in a dose-dependent manner
- NREM sleep amount (Wistar-Kyoto (WKY) rats; dark period): slight but significant increase in the amount of NREM sleep
- NREM sleep amount (Wistar-Kyoto (WKY) rats; light period): slight decrease in NREM sleep amount
- Wake amount (Wistar-Kyoto (WKY) rats; light period): dose-dependent increase in wake amount
